Reference: article PMC11667810
These are yes or no findings as the source states them, for the method shown. Binding seen in cells or lysates may run through a third protein. Some entries that bind do so weakly or less than the wild type.

Protein sequences, listed by entry. Tags and fused reporters are not part of them.
UniProt Q61221: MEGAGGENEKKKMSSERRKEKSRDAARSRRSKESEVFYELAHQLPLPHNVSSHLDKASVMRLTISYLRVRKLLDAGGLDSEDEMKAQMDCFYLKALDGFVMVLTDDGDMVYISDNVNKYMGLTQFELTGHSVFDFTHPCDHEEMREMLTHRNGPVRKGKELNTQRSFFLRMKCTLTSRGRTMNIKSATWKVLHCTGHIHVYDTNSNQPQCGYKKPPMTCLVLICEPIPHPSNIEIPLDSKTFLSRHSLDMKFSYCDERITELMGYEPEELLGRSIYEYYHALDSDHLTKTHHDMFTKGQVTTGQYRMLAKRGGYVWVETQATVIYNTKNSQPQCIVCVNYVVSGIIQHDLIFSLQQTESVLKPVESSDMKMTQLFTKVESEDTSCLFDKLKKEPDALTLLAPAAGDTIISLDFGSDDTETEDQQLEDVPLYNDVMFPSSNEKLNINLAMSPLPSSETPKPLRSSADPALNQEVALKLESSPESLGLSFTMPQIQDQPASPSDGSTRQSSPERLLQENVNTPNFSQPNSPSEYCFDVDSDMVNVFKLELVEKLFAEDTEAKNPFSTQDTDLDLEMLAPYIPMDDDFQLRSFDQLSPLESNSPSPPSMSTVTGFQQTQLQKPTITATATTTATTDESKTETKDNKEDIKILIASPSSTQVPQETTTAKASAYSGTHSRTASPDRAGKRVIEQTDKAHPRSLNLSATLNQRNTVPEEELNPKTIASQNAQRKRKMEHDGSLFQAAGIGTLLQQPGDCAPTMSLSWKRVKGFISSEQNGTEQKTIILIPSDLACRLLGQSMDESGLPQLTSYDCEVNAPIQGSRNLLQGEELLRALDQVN
UniProt Q61696: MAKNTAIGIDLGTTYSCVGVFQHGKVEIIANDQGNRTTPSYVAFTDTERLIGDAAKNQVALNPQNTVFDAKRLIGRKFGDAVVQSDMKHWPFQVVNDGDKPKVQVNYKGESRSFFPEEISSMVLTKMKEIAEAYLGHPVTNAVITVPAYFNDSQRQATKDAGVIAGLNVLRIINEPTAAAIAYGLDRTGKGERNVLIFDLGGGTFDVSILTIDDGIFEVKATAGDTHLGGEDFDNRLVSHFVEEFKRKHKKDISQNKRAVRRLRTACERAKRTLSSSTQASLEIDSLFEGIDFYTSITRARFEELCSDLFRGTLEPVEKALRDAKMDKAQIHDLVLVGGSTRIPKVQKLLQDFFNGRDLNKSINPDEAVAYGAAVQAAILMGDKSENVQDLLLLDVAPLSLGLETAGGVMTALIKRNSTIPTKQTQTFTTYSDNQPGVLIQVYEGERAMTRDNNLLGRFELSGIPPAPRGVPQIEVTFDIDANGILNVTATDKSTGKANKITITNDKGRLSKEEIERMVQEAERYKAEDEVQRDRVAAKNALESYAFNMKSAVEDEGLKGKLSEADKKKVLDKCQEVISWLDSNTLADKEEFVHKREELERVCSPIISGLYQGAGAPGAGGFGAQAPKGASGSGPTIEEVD

Target: Hypoxia-inducible factor 1-alpha (mouse (endogenous in bEnd.3)) (UniProt Q61221)
Assay: co-IP; lysates of bEnd.3 and heat-acclimated bEnd.3HA cells (treated with si-NC, si-Hif-1α or si-Hspa1a); 2 μg anti-HIF-1α or anti-HSP70 antibody overnight at 4°C, homologous IgG as control, Protein A/G 3 h at 4°C; immunoblot with anti-HIF-1α and anti-HSP70

Heat shock protein 70 (from UniProt Q61696 1-641)
binding: binds
